# Test results taken from article PMC12622526.
# Amino acid sequences for entries named in this document (tags omitted).
# UniProt P60953: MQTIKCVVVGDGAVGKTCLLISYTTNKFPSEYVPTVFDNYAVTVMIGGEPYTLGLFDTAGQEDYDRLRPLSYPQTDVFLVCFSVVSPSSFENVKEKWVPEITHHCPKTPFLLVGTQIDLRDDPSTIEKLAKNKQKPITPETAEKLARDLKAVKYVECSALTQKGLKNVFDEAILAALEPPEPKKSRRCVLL
# UniProt Q15811: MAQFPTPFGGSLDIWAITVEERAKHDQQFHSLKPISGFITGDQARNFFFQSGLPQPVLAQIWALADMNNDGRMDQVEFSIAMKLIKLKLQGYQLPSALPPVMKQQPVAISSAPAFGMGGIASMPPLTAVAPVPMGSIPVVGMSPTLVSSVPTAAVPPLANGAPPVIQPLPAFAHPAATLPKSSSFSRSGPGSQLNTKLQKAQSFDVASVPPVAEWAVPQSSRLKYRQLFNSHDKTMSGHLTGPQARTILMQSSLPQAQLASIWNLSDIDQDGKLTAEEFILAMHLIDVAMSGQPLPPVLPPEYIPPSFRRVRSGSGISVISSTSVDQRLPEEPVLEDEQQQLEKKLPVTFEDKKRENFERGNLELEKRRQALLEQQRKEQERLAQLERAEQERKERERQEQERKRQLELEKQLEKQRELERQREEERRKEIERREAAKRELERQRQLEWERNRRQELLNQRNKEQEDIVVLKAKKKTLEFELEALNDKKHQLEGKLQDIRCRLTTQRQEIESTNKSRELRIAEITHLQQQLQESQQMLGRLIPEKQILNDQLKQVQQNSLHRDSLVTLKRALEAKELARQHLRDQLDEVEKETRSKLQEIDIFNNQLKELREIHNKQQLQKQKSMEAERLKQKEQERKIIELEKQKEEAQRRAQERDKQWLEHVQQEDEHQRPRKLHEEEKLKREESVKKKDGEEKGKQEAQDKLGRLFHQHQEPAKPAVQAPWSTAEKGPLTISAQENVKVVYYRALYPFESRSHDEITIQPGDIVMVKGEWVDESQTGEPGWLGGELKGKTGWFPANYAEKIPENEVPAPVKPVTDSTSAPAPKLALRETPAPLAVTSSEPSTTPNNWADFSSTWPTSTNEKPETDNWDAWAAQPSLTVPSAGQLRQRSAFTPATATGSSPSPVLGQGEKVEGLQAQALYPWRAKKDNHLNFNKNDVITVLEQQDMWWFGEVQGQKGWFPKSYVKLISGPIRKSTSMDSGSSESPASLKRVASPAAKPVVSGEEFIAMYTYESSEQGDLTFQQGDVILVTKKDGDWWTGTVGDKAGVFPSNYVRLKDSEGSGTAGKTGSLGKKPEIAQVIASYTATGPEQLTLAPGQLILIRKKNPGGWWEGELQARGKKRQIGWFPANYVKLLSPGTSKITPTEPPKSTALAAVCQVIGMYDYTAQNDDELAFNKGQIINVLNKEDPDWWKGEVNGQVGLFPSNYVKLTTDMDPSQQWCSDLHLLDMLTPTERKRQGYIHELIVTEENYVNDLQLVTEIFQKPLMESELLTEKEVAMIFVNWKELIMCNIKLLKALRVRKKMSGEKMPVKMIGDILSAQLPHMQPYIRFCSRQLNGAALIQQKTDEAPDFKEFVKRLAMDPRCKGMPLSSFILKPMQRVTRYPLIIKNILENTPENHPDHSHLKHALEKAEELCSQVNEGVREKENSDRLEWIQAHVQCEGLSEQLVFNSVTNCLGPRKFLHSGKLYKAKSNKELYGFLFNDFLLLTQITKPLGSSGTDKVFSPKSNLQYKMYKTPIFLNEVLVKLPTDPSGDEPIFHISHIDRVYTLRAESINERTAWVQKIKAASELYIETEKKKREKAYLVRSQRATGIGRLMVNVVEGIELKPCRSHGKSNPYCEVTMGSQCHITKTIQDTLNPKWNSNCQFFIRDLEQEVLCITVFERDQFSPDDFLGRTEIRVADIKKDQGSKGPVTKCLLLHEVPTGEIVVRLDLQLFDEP
# These are yes or no findings as the source states them, for the method shown. Binding seen in cells or lysates may run through a third protein. Some binding calls cover weakened binding; strength is not graded here. For part of these data: Sequences can lack the tags named with a protein.
# How the values were obtained:
# [1] = molecular target: COA4 (cytochrome c oxidase assembly factor 4), endogenous (human) (UniProt Q9NYJ1); assay: proximity ligation; in situ Duolink PLA (Sigma–Aldrich DUO92101) in A549, 293T and H23 cells
# [2] = molecular target: T1, scCOA4‐MYC (Saccharomyces cerevisiae‐derived COA4) (S. cerevisiae) (UniProt Q05809); assay: proximity ligation; in situ PLA in A549 cells expressing scCOA4
# T1 sequence: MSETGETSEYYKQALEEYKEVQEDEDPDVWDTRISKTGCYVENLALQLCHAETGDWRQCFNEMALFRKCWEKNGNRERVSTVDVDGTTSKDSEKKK
# [3] = molecular target: COA4 (cytochrome c oxidase assembly factor 4), endogenous (human) (UniProt Q9NYJ1); assay: co-IP; endogenous Co‐IP in A549 and H23 cells
# [4] = molecular target: T1, scCOA4‐MYC (Saccharomyces cerevisiae‐derived COA4) (S. cerevisiae); assay: co-IP; IP from A549 cells transfected with scCOA4‐MYC, blot for CDC42
# [5] = molecular target: Flag‐COA4 (human cytochrome c oxidase assembly factor 4), transfected in 293T cells (human) (UniProt Q9NYJ1); assay: co-IP; 293T cells co‐transfected with Flag‐COA4 and HA‐CDC42; Pierce IP Lysis Buffer with protease and phosphatase inhibitors
# [6] = molecular target: CDC42, endogenous (human) (UniProt P60953); assay: co-IP; Co‐IP of CDC42 and ITSN1 in cells with COA4 overexpression or knockdown (Figure S10C)
substance,measurement,setting,value
"CDC42, endogenous (from UniProt P60953 1-191)",binding,[1],binds
same,binding,[2],binds
same,binding,[3],binds
same,binding,[4],binds
HA‐CDC42 (from UniProt P60953 1-191),binding,[5],binds
ITSN1 (from UniProt Q15811 1-1721),binding,[6],binds
